Source: publication PMC5309860 (2017)
No constants are given. Whether binding was seen depends on the method and setting. For part of these data: Binding seen in cells or lysates may run through a third protein. Some binding calls cover weakened binding; strength is not graded here. For part of these data: Tags and fused reporters may be left off the sequences shown. Each block holds one molecule with its values, some of them ahead of it.

Protein sequences, listed by entry. Tags and fused reporters are not part of them. Lines headed by an entry give the natural chain unless they say otherwise; changes in a name come on top.
UniProt Q8BWG8: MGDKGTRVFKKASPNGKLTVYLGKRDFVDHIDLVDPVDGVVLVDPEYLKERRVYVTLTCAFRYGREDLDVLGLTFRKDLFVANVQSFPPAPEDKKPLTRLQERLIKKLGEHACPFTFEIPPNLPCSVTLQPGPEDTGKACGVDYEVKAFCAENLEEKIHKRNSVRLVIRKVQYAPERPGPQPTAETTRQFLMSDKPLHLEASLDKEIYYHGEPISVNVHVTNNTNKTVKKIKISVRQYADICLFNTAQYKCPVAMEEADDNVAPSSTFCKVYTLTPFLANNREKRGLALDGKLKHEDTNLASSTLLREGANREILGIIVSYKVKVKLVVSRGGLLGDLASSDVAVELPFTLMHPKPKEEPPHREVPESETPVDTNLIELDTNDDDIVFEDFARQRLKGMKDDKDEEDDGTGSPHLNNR
UniProt P25095: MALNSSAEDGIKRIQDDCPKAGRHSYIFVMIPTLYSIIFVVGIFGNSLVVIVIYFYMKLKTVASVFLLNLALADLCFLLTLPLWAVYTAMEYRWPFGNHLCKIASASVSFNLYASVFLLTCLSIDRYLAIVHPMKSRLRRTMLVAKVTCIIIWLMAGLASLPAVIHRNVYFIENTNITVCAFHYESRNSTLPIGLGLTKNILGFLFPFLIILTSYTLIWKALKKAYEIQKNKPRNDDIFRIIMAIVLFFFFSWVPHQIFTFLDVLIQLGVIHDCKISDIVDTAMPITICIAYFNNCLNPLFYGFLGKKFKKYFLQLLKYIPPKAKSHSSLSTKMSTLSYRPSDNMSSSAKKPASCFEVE
UniProt P49407: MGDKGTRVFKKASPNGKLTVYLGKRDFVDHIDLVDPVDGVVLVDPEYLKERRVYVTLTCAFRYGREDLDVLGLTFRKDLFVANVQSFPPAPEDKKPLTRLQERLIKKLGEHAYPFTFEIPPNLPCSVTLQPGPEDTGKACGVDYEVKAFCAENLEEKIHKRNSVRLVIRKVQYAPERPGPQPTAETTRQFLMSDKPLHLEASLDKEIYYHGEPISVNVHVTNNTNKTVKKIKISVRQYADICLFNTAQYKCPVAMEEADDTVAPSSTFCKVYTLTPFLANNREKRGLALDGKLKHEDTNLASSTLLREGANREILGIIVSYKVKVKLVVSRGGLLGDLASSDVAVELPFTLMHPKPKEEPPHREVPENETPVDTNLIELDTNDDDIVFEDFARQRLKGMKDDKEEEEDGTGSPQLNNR

Experiments:
[1] = molecular target: T1, GST-PLCγ-SH3 (human) (UniProt P19174); assay: pull-down; purified β-arrestin-1 WT or poly-proline mutants pre-mixed with equimolar GRK6-phospho-β2AR peptide (or not), then GST-PLCγ-SH3 (10 μM each in the methods, 5 μM in the legend); 20 mM Tris-HCl pH 8.0, 150 mM NaCl, 2 mM EDTA, 1 mM DTT; GST-agarose, western blot; both purified
T1 sequence: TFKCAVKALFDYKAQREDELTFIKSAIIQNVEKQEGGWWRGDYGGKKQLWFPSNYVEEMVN

[2] = molecular target: T2, phosphoinositide-specific phospholipase C (PLCγ1) (human (endogenous in HEK293)) (UniProt P19174); assay: co-IP; competition: TAT-P1 peptide (5 μM, 2 h) given to HEK293 cells with AT1R-cherry, TRPC3-GFP and β-arrestin-1 before TRV120027; loss of the PLCγ-β-arrestin-1 co-precipitate; only the binder purified
T2 sequence: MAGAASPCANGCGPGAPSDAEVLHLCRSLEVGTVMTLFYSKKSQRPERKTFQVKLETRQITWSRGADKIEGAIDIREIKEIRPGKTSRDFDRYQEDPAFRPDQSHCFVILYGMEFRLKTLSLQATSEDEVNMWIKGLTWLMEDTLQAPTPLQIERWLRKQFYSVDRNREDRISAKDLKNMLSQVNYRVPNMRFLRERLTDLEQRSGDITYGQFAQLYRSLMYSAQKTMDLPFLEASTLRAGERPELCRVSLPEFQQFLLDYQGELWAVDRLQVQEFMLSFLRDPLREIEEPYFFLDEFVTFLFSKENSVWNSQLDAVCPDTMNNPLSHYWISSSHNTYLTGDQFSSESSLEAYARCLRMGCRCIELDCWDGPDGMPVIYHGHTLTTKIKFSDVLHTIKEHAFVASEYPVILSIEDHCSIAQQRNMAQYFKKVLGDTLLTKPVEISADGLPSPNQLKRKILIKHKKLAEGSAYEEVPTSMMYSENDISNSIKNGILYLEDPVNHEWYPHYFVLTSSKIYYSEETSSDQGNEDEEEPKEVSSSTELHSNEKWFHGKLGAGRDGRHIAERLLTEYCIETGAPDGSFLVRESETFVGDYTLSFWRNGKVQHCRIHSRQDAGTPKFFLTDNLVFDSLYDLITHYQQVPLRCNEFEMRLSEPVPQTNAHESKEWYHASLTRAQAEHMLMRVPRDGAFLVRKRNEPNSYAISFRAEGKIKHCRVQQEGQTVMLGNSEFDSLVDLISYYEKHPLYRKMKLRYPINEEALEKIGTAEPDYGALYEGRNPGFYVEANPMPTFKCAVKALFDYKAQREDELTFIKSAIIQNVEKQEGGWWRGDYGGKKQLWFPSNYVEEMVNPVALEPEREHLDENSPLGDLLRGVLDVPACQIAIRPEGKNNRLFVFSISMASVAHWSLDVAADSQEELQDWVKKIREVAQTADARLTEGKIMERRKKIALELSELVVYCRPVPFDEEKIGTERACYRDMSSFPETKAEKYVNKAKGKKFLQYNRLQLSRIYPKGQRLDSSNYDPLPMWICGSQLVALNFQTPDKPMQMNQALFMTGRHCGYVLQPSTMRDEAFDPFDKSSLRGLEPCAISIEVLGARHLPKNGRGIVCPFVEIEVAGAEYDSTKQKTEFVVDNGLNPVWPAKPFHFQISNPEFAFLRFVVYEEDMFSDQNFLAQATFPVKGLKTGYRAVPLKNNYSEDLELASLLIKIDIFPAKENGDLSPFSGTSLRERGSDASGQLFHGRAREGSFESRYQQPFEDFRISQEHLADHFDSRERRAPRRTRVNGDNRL

[3] = molecular target: endogenous β-arrestin-1 (adrenal medulla) (mouse (endogenous in adrenal medulla)) (UniProt Q8BWG8); assay: co-IP; isolated adrenal medulla after 100 nM TRV120027; endogenous β-arrestin-1 precipitated with the antibody A1CT, partners detected by specific antibodies
[4] = molecular target: Flag-AT1R-cherry (UniProt P25095); assay: co-IP; sequential: HEK293 cells with Flag-AT1R-cherry, HA-β-arrestin-1 and TRPC3-GFP, TRV120027 (100 nM) or vehicle 1 min; plasma membrane fractions; anti-Flag M2 agarose, elution with 3*Flag peptide, then anti-HA or anti-GFP beads; western blot
[5] = molecular target: HA-β-arrestin-1 (wild type) (UniProt P49407); assay: as above
[6] = molecular target: T3, TRPC3-GFP (wild type) (UniProt Q13507); assay: as above
T3 sequence: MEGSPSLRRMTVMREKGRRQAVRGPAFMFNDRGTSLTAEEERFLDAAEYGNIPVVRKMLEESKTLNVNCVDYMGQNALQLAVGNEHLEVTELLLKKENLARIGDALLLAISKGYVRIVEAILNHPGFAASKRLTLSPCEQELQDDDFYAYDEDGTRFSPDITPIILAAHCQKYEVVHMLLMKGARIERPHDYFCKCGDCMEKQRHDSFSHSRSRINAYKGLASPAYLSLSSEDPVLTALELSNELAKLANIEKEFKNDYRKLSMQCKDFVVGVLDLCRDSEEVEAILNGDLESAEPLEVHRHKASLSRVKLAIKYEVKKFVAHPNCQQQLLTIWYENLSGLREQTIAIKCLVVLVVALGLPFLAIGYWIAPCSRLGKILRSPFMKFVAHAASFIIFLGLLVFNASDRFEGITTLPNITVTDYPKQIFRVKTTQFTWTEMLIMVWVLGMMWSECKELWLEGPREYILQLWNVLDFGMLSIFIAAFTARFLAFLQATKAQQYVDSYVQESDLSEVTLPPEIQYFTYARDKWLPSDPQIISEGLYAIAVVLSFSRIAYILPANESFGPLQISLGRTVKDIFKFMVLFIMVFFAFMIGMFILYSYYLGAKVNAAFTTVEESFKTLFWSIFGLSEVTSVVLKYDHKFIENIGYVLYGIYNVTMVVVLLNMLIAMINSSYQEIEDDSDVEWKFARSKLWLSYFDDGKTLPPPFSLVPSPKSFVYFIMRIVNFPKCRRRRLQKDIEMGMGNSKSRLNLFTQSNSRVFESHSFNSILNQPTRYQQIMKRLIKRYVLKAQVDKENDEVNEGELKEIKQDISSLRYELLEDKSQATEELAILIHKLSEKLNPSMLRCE

[7] = molecular target: HA-β-arrestin-1 (wild type) (UniProt P49407); assay: co-IP; HEK293 cells co-transfected with Flag-AT1R-cherry, TRPC3-GFP (WT/truncations) and HA-β-arrestin-1 (WT/truncations/mutants); starved 12 h, stimulated 1 min with AngII (100 nM), TRV120055 (30 nM) or TRV120027 (100 nM); lysates precipitated with antibody-conjugated beads overnight at 4 °C, western …
[8] = molecular target: HA-β-arrestin-1 P121A (UniProt P49407); assay: as above
[9] = molecular target: HA-β-arrestin-1 P180A (UniProt P49407); assay: as above

binding [1]: binds
Molecule: His-β-arrestin-1-WT (from UniProt P49407 1-418)

binding [2]: binds
Molecule: TAT-P1 peptide (from UniProt P49407 82-94)

binding [3]: binds
B1: endogenous TRPC3 (adrenal medulla) (protein, UniProt Q9QZC1 1-910)
chain: MSTKVKKCREPARVTLPAPEEEEDGEAEGGESQRRRRGWRGVNGGLEPPCPRAPPSPGPDASSEGSPSRWRTAGMRDKGRRQAVRGPAFMFGARGPSLTAEEERFLDAAEYGNIPVVRKMLEESRTLNVNCVDYMGQNALQLAVGNEHLEVTELLLKKENLARIGDALLLAISKGYVRIVEAILGHPGFAASRRLTLSPCEQELRDDDFYAYDEDGTRFSPDITPIILAAHCHKYEVVHLLLLKGARIERPHDYFCRCSDCAEKQRLDAFSHSRSRINAYKGLASPAYLSLSSEDPVLTALELSNELAKLANIEKEFKNDYRKLSMQCKDFVVGVLDLCRDSEEVEAILNGDLESAEPLERHGHKASLSRVKLAIKYEVKKFVAHPNCQQQLLTIWYENLSGLREQTIAIKCLVVLVVALGLPFLAIGYWIAPCSRLGKILRSPFMKFVAHAASFIIFLGLLVFNASDRFEGITTLPNITVIDYPKQIFRVKTTQFTWTEMLIMVWVLGMMWSECKELWLEGPREYIVQLWNVLDFGMLSIFIAAFTARFLAFLQATKAQQYVDSHVQESDLSEVTLPPEVQYFTYARDKWLPSDPQIISEGLYAIAVVLSFSRIAYILPANESFGPLQISLGRTVKDIFKFMVLFIMVFLAFMIGMFILYSYYLGAKVNPAFTTVEESFKTLFWSIFGLSEVTSVVLKYDHKFIENIGYVLYGIYNVTMVVVLLNMLIAMINSSYQEIEDDSDVEWKFARSKLWLSYFDDGKTLPPPFSLVPSPKSFVYFIMRITNFSKCRRRRLQKDLELGMGNSKSRLNLFTQSNSRVFESHSFNSILNQPTRYQQIMKRLIKRYVLKAQVDKENDEVNEGELKEIKQDISSLRYELLEDKSQATEELAILIHKLSEKLNPSVLRCE

binding [4]: binds | binding [5]: binds | binding [6]: binds | binding [7]: binds | binding [8]: binds | binding [9]: binds
B2: phosphoinositide-specific phospholipase C (PLCγ1) (enzyme, UniProt P19174 1-1290)
chain: MAGAASPCANGCGPGAPSDAEVLHLCRSLEVGTVMTLFYSKKSQRPERKTFQVKLETRQITWSRGADKIEGAIDIREIKEIRPGKTSRDFDRYQEDPAFRPDQSHCFVILYGMEFRLKTLSLQATSEDEVNMWIKGLTWLMEDTLQAPTPLQIERWLRKQFYSVDRNREDRISAKDLKNMLSQVNYRVPNMRFLRERLTDLEQRSGDITYGQFAQLYRSLMYSAQKTMDLPFLEASTLRAGERPELCRVSLPEFQQFLLDYQGELWAVDRLQVQEFMLSFLRDPLREIEEPYFFLDEFVTFLFSKENSVWNSQLDAVCPDTMNNPLSHYWISSSHNTYLTGDQFSSESSLEAYARCLRMGCRCIELDCWDGPDGMPVIYHGHTLTTKIKFSDVLHTIKEHAFVASEYPVILSIEDHCSIAQQRNMAQYFKKVLGDTLLTKPVEISADGLPSPNQLKRKILIKHKKLAEGSAYEEVPTSMMYSENDISNSIKNGILYLEDPVNHEWYPHYFVLTSSKIYYSEETSSDQGNEDEEEPKEVSSSTELHSNEKWFHGKLGAGRDGRHIAERLLTEYCIETGAPDGSFLVRESETFVGDYTLSFWRNGKVQHCRIHSRQDAGTPKFFLTDNLVFDSLYDLITHYQQVPLRCNEFEMRLSEPVPQTNAHESKEWYHASLTRAQAEHMLMRVPRDGAFLVRKRNEPNSYAISFRAEGKIKHCRVQQEGQTVMLGNSEFDSLVDLISYYEKHPLYRKMKLRYPINEEALEKIGTAEPDYGALYEGRNPGFYVEANPMPTFKCAVKALFDYKAQREDELTFIKSAIIQNVEKQEGGWWRGDYGGKKQLWFPSNYVEEMVNPVALEPEREHLDENSPLGDLLRGVLDVPACQIAIRPEGKNNRLFVFSISMASVAHWSLDVAADSQEELQDWVKKIREVAQTADARLTEGKIMERRKKIALELSELVVYCRPVPFDEEKIGTERACYRDMSSFPETKAEKYVNKAKGKKFLQYNRLQLSRIYPKGQRLDSSNYDPLPMWICGSQLVALNFQTPDKPMQMNQALFMTGRHCGYVLQPSTMRDEAFDPFDKSSLRGLEPCAISIEVLGARHLPKNGRGIVCPFVEIEVAGAEYDSTKQKTEFVVDNGLNPVWPAKPFHFQISNPEFAFLRFVVYEEDMFSDQNFLAQATFPVKGLKTGYRAVPLKNNYSEDLELASLLIKIDIFPAKENGDLSPFSGTSLRERGSDASGQLFHGRAREGSFESRYQQPFEDFRISQEHLADHFDSRERRAPRRTRVNGDNRL
